Laboratory results reported in PMC4138406, “In vitro and in vivo anti-malarial activity of limonoids isolated from the residual seed biomass from Carapa guianensis (andiroba) oil production” (Malaria Journal, 2014).

System: MRC-5 human fibroblasts
Experiment: Cytotoxicity assay (AlamarBlue) on MRC-5 human fibroblasts
Assay type: cell-based
Settings: MRC-5 vs P. falciparum K1
Procedure: The MRC-5 cell line of human fibroblasts was grown in Dulbecco’s Modified Eagle’s Medium (DMEM) supplemented with 10% fetal bovine serum, 2 mM glutamine, 100 μg/mL streptomycin and 100 U/mL penicillin, and incubated at 37°C with a 5% atmosphere of CO2. For assays, the cells were plated in 96-well plates (2.5 × 10^4 cells/well) and the AlamarBlue™ assay was performed using a previously described procedure. After incubation for 24 h, compounds 1-5 were individually dissolved in DMSO and the resulting solutions were diluted in culture medium. The resulting dilute solutions of each sample were added to wells at final (well) concentrations of 1.56-100 μg/mL. Control groups had final well concentrations of 0.1% DMSO. The plates were further incubated for 48 h. 3 h before the end of the incubation period, AlamarBlue™ (10 μL) was added to each well. The fluorescent signal was monitored with a multiplate reader using 530-560 nm excitation and 590 nm emission wavelengths.

Row | Compound | SI = IC50 (human fibroblasts)/IC50 (P. falciparum)
1 | CC(=O)O[C@@H]1C2C(C)(C)C(=O)C=C[C@]2(C)C2CC[C@@]3(C)[C@H](c4ccoc4)OC(=O)[C@H]4O[C@]43[C@]2(C)[C@@H]1OC(C)=O (stereo partly drawn) [compound 3, 6α-acetoxygedunin] | >26
2 | CC(=O)O[C@@H]1C2C(C)(C)C(=O)C=C[C@]2(C)C2CC[C@@]3(C)[C@H](c4ccoc4)C(=O)[C@H]4O[C@]43[C@]2(C)[C@@H]1OC(C)=O (stereo partly drawn) [compound 1, 6α-acetoxyepoxyazadiradione] | >12
3 | CC1(C)C(=O)C=C[C@@]2(C)C1CC(=O)[C@]1(C)C2CC[C@@]2(C)[C@H](c3ccoc3)OC(=O)[C@H]3O[C@]321 (stereo partly drawn) [compound 4, 7-deacetoxy-7-oxogedunin] | 5
